Experiment [1] deals with native CFTR of mouse submandibular gland (mouse (endogenous in submandibular gland)) (UniProt P26361). The experiment in a line: co-IP; lysates of mouse submandibular glands (two mice), native or 4 days after retrograde ductal infusion of Adv-E-Syt3-Myc; lysis buffer with 1% Triton X-100; antibodies overnight at 4 °C, Sepharose beads.
Another experiment has as its target T1, NBCe1-B-eGFP (UniProt Q9Y6R1).
T1 sequence: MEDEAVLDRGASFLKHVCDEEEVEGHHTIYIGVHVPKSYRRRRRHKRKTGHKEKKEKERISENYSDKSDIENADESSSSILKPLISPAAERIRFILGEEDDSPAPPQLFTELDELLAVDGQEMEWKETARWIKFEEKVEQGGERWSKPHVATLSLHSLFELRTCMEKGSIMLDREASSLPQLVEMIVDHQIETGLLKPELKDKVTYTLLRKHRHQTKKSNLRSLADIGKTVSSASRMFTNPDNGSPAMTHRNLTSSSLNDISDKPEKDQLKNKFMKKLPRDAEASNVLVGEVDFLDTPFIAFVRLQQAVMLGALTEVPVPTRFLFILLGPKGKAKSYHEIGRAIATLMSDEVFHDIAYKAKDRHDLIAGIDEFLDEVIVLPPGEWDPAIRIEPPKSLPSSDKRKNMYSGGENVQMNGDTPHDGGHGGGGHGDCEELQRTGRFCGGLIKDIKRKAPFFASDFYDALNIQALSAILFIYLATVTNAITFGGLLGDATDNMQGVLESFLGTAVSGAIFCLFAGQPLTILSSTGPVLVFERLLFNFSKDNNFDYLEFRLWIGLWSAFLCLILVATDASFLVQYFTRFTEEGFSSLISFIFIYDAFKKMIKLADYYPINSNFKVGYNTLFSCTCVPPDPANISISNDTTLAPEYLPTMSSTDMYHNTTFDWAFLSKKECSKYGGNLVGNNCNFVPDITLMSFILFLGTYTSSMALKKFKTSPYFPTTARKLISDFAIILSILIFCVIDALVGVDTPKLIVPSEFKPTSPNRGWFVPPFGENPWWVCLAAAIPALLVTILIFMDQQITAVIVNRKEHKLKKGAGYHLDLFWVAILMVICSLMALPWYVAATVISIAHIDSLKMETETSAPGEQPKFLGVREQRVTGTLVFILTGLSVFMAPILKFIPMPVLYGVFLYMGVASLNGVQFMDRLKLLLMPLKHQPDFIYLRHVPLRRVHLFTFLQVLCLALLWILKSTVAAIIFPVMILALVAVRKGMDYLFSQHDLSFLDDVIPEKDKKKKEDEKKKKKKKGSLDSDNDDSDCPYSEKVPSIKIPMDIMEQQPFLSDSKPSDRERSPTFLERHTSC
The experiment in a line: co-IP; lysates of transfected HEK293T cells (PBS with 1% Triton X-100, phosphatase and protease inhibitors, pH 7.4); antibodies overnight at 4 °C, Sepharose beads for 4 h, three washes, blots; some cells co-expressing E-Syt3 or E3C2C, or depleted of PI(4,5)P2 (FRB + FKBP-5PIPase, 0.5 µM rapamycin for 8 min).

Protein sequences, listed by entry. Tags and fused reporters are not part of them.
UniProt P26361: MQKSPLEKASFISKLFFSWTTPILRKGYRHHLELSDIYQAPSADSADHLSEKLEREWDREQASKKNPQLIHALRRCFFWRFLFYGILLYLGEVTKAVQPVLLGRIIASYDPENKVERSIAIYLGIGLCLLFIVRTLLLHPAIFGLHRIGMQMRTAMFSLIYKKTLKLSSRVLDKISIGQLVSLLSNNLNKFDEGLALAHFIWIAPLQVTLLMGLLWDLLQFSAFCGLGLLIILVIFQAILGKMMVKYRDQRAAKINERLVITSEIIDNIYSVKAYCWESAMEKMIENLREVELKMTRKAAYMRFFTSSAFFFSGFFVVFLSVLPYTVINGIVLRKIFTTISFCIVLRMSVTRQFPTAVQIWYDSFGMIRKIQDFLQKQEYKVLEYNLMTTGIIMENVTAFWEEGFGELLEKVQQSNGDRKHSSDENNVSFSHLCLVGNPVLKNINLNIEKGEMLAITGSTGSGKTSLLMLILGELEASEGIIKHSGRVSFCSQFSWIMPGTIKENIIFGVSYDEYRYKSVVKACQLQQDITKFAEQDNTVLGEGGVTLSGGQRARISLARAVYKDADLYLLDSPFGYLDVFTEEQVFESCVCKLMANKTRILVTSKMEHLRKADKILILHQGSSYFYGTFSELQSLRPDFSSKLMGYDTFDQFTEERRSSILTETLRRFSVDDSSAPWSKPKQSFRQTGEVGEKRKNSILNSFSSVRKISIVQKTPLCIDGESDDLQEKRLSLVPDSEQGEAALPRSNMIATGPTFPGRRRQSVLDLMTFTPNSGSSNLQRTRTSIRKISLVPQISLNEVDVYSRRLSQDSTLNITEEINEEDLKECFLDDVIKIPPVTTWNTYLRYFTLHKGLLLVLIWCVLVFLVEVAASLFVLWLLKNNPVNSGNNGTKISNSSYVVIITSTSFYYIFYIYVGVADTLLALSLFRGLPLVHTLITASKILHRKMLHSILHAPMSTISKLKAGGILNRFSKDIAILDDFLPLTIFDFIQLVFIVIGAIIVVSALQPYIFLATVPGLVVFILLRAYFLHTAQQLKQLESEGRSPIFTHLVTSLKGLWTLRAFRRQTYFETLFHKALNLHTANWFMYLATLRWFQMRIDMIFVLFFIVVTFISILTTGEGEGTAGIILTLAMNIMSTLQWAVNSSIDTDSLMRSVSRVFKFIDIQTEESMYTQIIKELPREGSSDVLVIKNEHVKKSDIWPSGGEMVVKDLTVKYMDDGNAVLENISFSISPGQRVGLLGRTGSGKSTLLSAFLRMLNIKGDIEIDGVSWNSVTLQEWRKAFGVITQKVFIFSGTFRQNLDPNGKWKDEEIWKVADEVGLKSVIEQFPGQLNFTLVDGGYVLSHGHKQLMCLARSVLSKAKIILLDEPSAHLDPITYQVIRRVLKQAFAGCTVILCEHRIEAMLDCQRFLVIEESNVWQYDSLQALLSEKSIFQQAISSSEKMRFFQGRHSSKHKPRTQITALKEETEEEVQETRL
UniProt P13569: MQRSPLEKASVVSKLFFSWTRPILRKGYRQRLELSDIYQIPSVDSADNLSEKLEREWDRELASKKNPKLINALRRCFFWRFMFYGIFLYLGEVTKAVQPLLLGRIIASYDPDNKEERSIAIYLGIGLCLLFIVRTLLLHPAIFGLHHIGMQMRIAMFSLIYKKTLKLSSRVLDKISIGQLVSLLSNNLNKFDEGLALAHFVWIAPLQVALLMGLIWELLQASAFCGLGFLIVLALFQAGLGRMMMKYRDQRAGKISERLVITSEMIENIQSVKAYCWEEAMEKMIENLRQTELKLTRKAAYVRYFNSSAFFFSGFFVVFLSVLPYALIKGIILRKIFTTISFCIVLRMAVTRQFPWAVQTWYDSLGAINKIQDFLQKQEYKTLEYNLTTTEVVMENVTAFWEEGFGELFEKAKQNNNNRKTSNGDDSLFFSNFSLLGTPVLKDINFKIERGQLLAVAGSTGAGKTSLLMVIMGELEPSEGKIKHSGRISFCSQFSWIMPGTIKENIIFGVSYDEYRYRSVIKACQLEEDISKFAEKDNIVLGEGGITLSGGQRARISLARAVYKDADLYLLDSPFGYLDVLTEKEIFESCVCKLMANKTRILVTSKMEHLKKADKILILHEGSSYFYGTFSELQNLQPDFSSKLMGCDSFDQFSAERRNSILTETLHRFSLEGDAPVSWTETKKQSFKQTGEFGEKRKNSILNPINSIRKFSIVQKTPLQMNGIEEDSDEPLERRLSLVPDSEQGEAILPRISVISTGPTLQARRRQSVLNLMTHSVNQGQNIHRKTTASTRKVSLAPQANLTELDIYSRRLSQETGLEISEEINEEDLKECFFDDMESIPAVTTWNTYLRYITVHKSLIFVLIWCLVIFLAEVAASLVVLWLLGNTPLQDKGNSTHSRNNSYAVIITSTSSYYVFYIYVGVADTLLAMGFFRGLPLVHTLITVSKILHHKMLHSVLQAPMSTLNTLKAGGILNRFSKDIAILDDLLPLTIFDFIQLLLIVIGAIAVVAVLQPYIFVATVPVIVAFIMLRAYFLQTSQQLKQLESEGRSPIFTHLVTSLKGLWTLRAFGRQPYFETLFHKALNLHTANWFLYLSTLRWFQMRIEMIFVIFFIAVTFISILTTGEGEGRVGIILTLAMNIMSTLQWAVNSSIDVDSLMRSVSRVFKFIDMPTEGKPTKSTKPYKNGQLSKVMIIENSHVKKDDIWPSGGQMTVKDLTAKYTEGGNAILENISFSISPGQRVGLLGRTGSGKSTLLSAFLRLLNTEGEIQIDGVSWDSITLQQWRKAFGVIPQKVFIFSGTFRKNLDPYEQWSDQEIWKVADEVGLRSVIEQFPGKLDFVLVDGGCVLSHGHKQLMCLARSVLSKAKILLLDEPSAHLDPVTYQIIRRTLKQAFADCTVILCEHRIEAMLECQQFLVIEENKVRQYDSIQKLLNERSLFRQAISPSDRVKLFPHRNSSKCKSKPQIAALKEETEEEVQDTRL

The next experiment addresses CFTR-GFP (UniProt P13569). The experiment is described as above.

Positions count from the first letter of the chain named. Names may count otherwise. Results are given in words; binding and its absence hold for the method and conditions named. Binding seen in cells or lysates may run through a third protein. Some entries that bind do so weakly or less than the wild type. Where a sequence is shown, tags or fusion partners need not be part of it.

B1: native E-Syt3 of mouse submandibular gland (protein, UniProt Q5DTI8 1-891)
chain: MQPEEPCAPSAPGGPDVPERGQRSRDPGPRLSGQLLPELYSFVARVLFYLAPVYLAGYLGLSVTWLLLGALLWMWWRRNRRGKLGRLEAAFEFLEHEREFISRELRGQHLPAWIHFPDVERVEWANKIIIQIWPYLSMIMENKIREKLEPKIREKSIHLRTFTFTKLYFGQKCPKVNGVKVHTDKRNRRKVTLDLQICYIGDCEISVELQKIRGGVSGVQLQGTLRVILEPLLVDKPFIGAVTVFFLQKPHLQINWTGLTNLLDMPGINELSDSLLEDLIAAHLVLPNRVTVPVKKGLDVTNLRVPLPCGVIRVHLLEAKKLAQKDNFLGLGGKSDPYAKVSIGLQHCRSRTIYKNLNPTWNEVFEFMVYEVPGQDLEVDLYDEDTDKDDFLGSLQICLGDVMKNRVVDEWFALNDTTSGRLHLRLEWLSLLTDQEALTENDSGLSTAILVVFLENACNLPRNPFDYLNGEYRAKKLSRFVKNKASRDPSSYVKLTVGKKTFTSKTCPHSKDPVWSQVFSFFVHSVAAEQLCLKVLDDELECALGVLEFPLCRILPCADLTLEQCFQLDHSGLDSLISMRLVLRFLRVEGRELGSPYTGPDALKKGPLFIKKVATNQGCKAPPLNEGLADVTSTSNPASYIKGASKSIDNISAATTDPEPMPEPQGPGPEPKGKDSARGLCESPGKKKNPATTFLTVPGLHSPGPIKSPRPMSRPAFPFAWPLTRVAPSMSSLNSLASSCFDLTDVSLNTEAGDSRQGRLGEIQLTVRYVCLRHCLRVLVNGCRNLTPCTSSGADPYVRIYLLPERRWASRKKTSVKQKTLEPLFDETFEFFVPMGEVQKRSLDVAVKNSRPLGSHRRKELGKVLIDLSKQDLIKGFSQWYELTADGQPRS
As for B1, the binding result in experiment [1] was “binds”.

B2: E3SMP-Flag (domain or fragment, UniProt A0FGR9 114-293)
chain: DVERVEWANKIISQTWPYLSMIMESKFREKLEPKIREKSIHLRTFTFTKLYFGQKCPRVNGVKAHTNTCNRRRVTVDLQICYIGDCEISVELQKIQAGVNGIQLQGTLRVILEPLLVDKPFVGAVTVFFLQKPHLQINWTGLTNLLDAPGINDVSDSLLEDLIATHLVLPNRVTVPVKKG
As to B2, the binding entry with NBCe1-B-eGFP and with CFTR-GFP was “binds” in each case.

B3: E3C2C-RFP (domain or fragment, UniProt A0FGR9 754-886)
chain: QLGEIQLTVRYVCLRRCLSVLINGCRNLTPCTSSGADPYVRVYLLPERKWACRKKTSVKRKTLEPLFDETFEFFVPMEEVKKRSLDVAVKNSRPLGSHRRKELGKVLIDLSKEDLIKGFSQWYELTPNGQPRS
B3: the binding result with NBCe1-B-eGFP and with CFTR-GFP was “binds” each time.

B4: E-Syt3-Myc (adenoviral, in mouse submandibular gland) (protein, UniProt A0FGR9 1-886)
chain: MRAEEPCAPGAPSALGAQRTPGPELRLSSQLLPELCTFVVRVLFYLGPVYLAGYLGLSITWLLLGALLWMWWRRNRRGKLGRLAAAFEFLDNEREFISRELRGQHLPAWIHFPDVERVEWANKIISQTWPYLSMIMESKFREKLEPKIREKSIHLRTFTFTKLYFGQKCPRVNGVKAHTNTCNRRRVTVDLQICYIGDCEISVELQKIQAGVNGIQLQGTLRVILEPLLVDKPFVGAVTVFFLQKPHLQINWTGLTNLLDAPGINDVSDSLLEDLIATHLVLPNRVTVPVKKGLDLTNLRFPLPCGVIRVHLLEAEQLAQKDNFLGLRGKSDPYAKVSIGLQHFRSRTIYRNLNPTWNEVFEFMVYEVPGQDLEVDLYDEDTDRDDFLGSLQICLGDVMTNRVVDEWFVLNDTTSGRLHLRLEWLSLLTDQEVLTEDHGGLSTAILVVFLESACNLPRNPFDYLNGEYRAKKLSRFARNKVSKDPSSYVKLSVGKKTHTSKTCPHNKDPVWSQVFSFFVHNVATERLHLKVLDDDQECALGMLEVPLCQILPYADLTLEQRFQLDHSGLDSLISMRLVLRFLQVEERELGSPYTGPEALKKGPLLIKKVATNQGPKAQPQEEGPTDLPCPPDPASDTKDVSRSTTTTTSATTVATEPTSQETGPEPKGKDSAKRFCEPIGEKKSPATIFLTVPGPHSPGPIKSPRPMKCPASPFAWPPKRLAPSMSSLNSLASSCFDLADISLNIEGGDLRRRQLGEIQLTVRYVCLRRCLSVLINGCRNLTPCTSSGADPYVRVYLLPERKWACRKKTSVKRKTLEPLFDETFEFFVPMEEVKKRSLDVAVKNSRPLGSHRRKELGKVLIDLSKEDLIKGFSQWYELTPNGQPRS
Take B4: the binding result in experiment [1] is recorded as “binds”.

B5: E-Syt3(K123A/I124A) (protein, UniProt A0FGR9 1-886)
chain: B4 chain with K123A, I124A
For the molecule B5, the binding result with CFTR-GFP is “binds”.

B6: E-Syt2-Myc (protein, UniProt A0FGR8 1-921)
chain: MTANRDAALSSHRHPGCAQRPRTPTFASSSQRRSAFGFDDGNFPGLGERSHAPGSRLGARRRAKTARGLRGHRQRGAGAGLSRPGSARAPSPPRPGGPENPGGVLSVELPGLLAQLARSFALLLPVYALGYLGLSFSWVLLALALLAWCRRSRGLKALRLCRALALLEDEERVVRLGVRACDLPAWVHFPDTERAEWLNKTVKHMWPFICQFIEKLFRETIEPAVRGANTHLSTFSFTKVDVGQQPLRINGVKVYTENVDKRQIILDLQISFVGNCEIDLEIKRYFCRAGVKSIQIHGTMRVILEPLIGDMPLVGALSIFFLRKPLLEINWTGLTNLLDVPGLNGLSDTIILDIISNYLVLPNRITVPLVSEVQIAQLRFPVPKGVLRIHFIEAQDLQGKDTYLKGLVKGKSDPYGIIRVGNQIFQSRVIKENLSPKWNEVYEALVYEHPGQELEIELFDEDPDKDDFLGSLMIDLIEVEKERLLDEWFTLDEVPKGKLHLRLEWLTLMPNASNLDKVLTDIKADKDQANDGLSSALLILYLDSARNLPSGKKISSNPNPVVQMSVGHKAQESKIRYKTNEPVWEENFTFFIHNPKRQDLEVEVRDEQHQCSLGNLKVPLSQLLTSEDMTVSQRFQLSNSGPNSTIKMKIALRVLHLEKRERPPDHQHSAQVKRPSVSKEGRKTSIKSHMSGSPGPGGSNTAPSTPVIGGSDKPGMEEKAQPPEAGPQGLHDLGRSSSSLLASPGHISVKEPTPSIASDISLPIATQELRQRLRQLENGTTLGQSPLGQIQLTIRHSSQRNKLIVVVHACRNLIAFSEDGSDPYVRMYLLPDKRRSGRRKTHVSKKTLNPVFDQSFDFSVSLPEVQRRTLDVAVKNSGGFLSKDKGLLGKVLVALASEELAKGWTQWYDLTEDGTRPQAMT
In the case of B6, the binding entry with NBCe1-B-eGFP and with CFTR-GFP was “binds” throughout.

For the origin of these results see publication PMC12217353.
